Assay results taken from paper PMC9668335.

Amino acid sequences for entries named in this document (tags omitted). A change or cut given only in a name is not applied to a line headed by its entry.
UniProt Q96RK0: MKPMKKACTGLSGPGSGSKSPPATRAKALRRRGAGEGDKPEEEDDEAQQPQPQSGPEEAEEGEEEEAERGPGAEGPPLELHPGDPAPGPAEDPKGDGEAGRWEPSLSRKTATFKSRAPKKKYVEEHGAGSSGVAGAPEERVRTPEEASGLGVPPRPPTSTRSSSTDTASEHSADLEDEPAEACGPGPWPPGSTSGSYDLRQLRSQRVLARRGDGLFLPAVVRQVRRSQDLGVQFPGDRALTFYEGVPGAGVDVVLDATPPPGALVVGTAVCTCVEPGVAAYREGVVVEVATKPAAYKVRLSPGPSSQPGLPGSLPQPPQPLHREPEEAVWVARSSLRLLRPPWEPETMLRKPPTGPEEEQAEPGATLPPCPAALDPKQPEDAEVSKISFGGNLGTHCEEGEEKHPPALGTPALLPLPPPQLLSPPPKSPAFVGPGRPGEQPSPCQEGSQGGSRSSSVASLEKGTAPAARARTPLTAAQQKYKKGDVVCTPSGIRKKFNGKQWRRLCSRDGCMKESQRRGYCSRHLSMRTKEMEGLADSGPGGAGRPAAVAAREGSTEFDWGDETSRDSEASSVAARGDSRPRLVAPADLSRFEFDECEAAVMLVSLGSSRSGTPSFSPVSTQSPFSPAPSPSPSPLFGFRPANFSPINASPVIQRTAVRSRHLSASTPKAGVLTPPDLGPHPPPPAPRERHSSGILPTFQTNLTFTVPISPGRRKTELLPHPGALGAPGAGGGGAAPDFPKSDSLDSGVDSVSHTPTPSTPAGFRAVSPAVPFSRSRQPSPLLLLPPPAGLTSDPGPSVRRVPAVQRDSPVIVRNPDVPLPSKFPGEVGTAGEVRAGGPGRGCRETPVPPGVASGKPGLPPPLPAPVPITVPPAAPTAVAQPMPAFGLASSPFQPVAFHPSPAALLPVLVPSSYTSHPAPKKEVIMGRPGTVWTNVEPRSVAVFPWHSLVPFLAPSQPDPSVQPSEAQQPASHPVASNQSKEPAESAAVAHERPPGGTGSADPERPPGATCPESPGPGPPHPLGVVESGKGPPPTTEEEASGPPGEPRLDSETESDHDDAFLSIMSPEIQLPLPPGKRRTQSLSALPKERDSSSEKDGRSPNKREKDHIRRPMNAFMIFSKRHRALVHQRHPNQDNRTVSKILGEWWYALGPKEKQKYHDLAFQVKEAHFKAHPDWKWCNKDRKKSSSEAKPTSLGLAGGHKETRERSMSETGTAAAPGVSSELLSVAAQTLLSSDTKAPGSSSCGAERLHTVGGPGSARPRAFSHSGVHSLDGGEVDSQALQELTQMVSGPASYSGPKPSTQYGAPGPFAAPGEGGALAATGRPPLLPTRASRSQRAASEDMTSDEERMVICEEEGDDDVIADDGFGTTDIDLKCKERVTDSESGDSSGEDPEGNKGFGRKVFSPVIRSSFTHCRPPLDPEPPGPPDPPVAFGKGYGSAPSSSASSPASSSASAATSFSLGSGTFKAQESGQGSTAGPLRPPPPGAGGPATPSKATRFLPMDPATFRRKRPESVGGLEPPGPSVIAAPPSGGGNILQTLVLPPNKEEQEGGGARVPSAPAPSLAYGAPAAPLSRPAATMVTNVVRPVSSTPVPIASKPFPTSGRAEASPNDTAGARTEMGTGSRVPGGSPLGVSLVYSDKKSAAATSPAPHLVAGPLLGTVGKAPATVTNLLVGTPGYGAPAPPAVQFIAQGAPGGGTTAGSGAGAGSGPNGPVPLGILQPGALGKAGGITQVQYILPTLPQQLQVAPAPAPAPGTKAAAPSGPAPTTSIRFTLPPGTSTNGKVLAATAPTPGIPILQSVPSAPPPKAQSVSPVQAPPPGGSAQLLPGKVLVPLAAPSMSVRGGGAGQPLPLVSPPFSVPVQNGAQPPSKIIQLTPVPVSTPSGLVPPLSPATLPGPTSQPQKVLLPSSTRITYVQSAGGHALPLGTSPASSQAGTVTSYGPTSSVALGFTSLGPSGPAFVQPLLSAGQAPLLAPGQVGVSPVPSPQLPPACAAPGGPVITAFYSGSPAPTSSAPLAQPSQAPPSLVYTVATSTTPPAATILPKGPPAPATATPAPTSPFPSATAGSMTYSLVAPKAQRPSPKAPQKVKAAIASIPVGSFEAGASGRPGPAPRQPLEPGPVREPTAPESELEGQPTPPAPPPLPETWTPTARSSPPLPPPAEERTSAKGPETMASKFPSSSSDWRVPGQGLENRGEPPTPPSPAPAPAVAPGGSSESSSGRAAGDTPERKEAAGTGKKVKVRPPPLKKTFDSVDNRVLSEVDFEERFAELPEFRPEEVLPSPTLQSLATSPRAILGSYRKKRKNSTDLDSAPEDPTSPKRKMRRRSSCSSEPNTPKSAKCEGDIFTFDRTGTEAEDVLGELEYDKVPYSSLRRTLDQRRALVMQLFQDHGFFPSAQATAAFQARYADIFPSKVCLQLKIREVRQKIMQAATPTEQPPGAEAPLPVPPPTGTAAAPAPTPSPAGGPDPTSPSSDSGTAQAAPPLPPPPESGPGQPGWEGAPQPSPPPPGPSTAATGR

Molecular target: Myc-tagged Capicua (CIC) (human) (UniProt Q96RK0)
Experiment: co-IP; HEK293T cells transfected with Myc-tagged CIC for 48 hr; lysate incubated with anti-myc magnetic beads (or IgG on Dynabeads Protein G) overnight at 4 °C; blotted for Myc or ERF

binding: no binding
B1: ETS2 repressor factor (ERF), detected by ERF antibody in HEK293T lysate (protein, UniProt P50548 1-548)
chain: MKTPADTGFAFPDWAYKPESSPGSRQIQLWHFILELLRKEEYQGVIAWQGDYGEFVIKDPDEVARLWGVRKCKPQMNYDKLSRALRYYYNKRILHKTKGKRFTYKFNFNKLVLVNYPFIDVGLAGGAVPQSAPPVPSGGSHFRFPPSTPSEVLSPTEDPRSPPACSSSSSSLFSAVVARRLGRGSVSDCSDGTSELEEPLGEDPRARPPGPPDLGAFRGPPLARLPHDPGVFRVYPRPRGGPEPLSPFPVSPLAGPGSLLPPQLSPALPMTPTHLAYTPSPTLSPMYPSGGGGPSGSGGGSHFSFSPEDMKRYLQAHTQSVYNYHLSPRAFLHYPGLVVPQPQRPDKCPLPPMAPETPPVPSSASSSSSSSSSPFKFKLQPPPLGRRQRAAGEKAVAGADKSGGSAGGLAEGAGALAPPPPPPQIKVEPISEGESEEVEVTDISDEDEEDGEVFKTPRAPPAPPKPEPGEAPGASQCMPLKLRFKRRWSEDCRLEGGGGPAGGFEDEGEDKKVRGEGPGEAGGPLTPRRVSSDLQHATAQLSLEHRDS

No constants are given. Whether binding was seen depends on the method and setting. In cells and extracts the contact can be indirect.
